This is an account of results in paper PMC10288505 (Journal of the American Chemical Society, 2023).

A short description of the series: general procedure: Fmoc solid-phase peptide synthesis; Rink Amide resin (loading 0.45 mmol/g); N-HBTU/DIEA; HATU/DIEA for TAMRA. Particulars: whole synthesis, overall.

HELM strings list residues between dots; [ac] is acetyl, [am] amide, other brackets name non-standard units.

PEPTIDE1{R.R.R.R.R.R.R.R.[am]}$$$$V2.0: the isolated yield came to 37%. The value for PEPTIDE1{R.R.R.R.R.R.[am]}$$$$V2.0 was 55%.
